Values of other authors in PMC8221234 (Chemical biology & drug design, 2009).

Assays:
[1] = tested on: PKR; conditions: cited from earlier work
[2] = tested on: HRI; conditions: cited from earlier work

CN[C@@H]1C[C@H]2O[C@@](C)([C@@H]1OC)n1c3ccccc3c3c4c(c5c6ccccc6n2c5c31)C(=O)NC4 [Staurosporine, staurosporine]
Sensitivity of PKR to inhibitor (qualitative) [1]: resistant to this inhibitor | Sensitivity of HRI to inhibitor (qualitative) [2]: resistant to this inhibitor
